Measurements published in PubChem BioAssay AID624297 (National Center for Advancing Translational Sciences (NCATS), 2012).
In all, about 340,000 compounds went through this assay and about 6,200 (1.8%) were called active. This list was built around the results that the source calls inconclusive (neither active nor inactive); the mix of calls is not that of the screen. Calls follow the shape of the dose curve; as a rule, active = well fitted activation curve with a large enough effect; inconclusive = small, poorly fitted or top-dose-only effect; inactive = no such curve, though single readings can be large or run the other way. Where the call is inconclusive, the potency comes from a doubtful curve fit.

Assay: A quantitative high throughput screen for small molecules that induce DNA re-replication in SW480 colon adenocarcinoma cells. Also: nearly all actives have a fitted effect of over 55% in size. As to re-replication activation: % of control where 0% means no effect.
Conditions: Hoechst DNA content imaging, 48 h; re-replication activation: at 46.1 µM (top of the series)
Summary of the method: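 250 cells/well; 23 nL cpd via pin tool; 48 hr, 37 C, 5% CO2; Hoechst 40 min; imager read of total nuclear intensity, ex 405/em 500-530 nm.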
Potency is read from the fitted curve at half-maximal effect.

Question: With CC(C)C1C(c2ccccc2)N(C)C(c2ccccc2)CC1(O)c1ccccc1 (stereo not given) as the molecule, how does the Potency read?
Answer: inconclusive: 29.1 µM [activator, single point]

Question: Which Potency does the source give for CCCNC(=O)c1c(N)n(Cc2ccco2)c2nc3ccccc3nc12 here?
Answer: inconclusive: 4.61 µM [activator, single point]

Question: For COc1cc(C(=O)NN=Cc2ccc(N(CCCl)CCCl)cc2)cc(OC)c1OC, which Potency is on record?
Answer: active: 18.4 µM

Question: Which “re-replication activation” value does the source give for CC(=O)Nc1ccc(OC(=O)N(C)c2ccc(C)cc2)cc1 here?
Answer: inactive: -3.8%

Question: With Cc1cc(C(=O)C[N+]23CCN(CC2)CC3)c(C)n1-c1ccc(Br)cc1 as the molecule, how does the “re-replication activation” value read?
Answer: inactive: 29.9%

Question: For CC(C)[C@@]1(NC(=O)[C@@H]2C=C3c4cccc5[nH]cc(c45)C[C@H]3N(C)C2)O[C@@]2(O)[C@@H]3CCCN3C(=O)[C@H](Cc3ccccc3)N2C1=O, which Potency is on record?
Answer: inconclusive: 2.31 µM [activator, full curve, poor fit]

Question: Which Potency does the source give for O=c1oc2cccnc2n1CCS(=O)(=O)c1ccc(F)cc1 here?
Answer: inconclusive: 29.1 µM [activator, partial curve, poor fit]

Question: Which Potency does the source give for CC1=C2CCC3C(CCC4=CC(=O)CCC43C)C2CC1 (stereo not given) here?
Answer: inconclusive: 23.1 µM [activator, partial curve, poor fit]

Question: For O=C(c1cc(F)ccc1F)C1CCCN(Cc2cccc(Cl)c2)C1 (stereo not given), which Potency is on record?
Answer: inconclusive: 0.58 µM [activator, single point]

Question: For Cc1cc(C(=O)Nc2ccc3c(c2)OCCO3)nn1C(C)(C)C, which “re-replication activation” value is on record?
Answer: inactive: -1.01%

Question: Which Potency does the source give for COc1cc(Cc2ccc(N)c(OC)c2)ccc1N here?
Answer: inconclusive: 1.64 µM [activator, full curve]

Question: With CC(=O)OC[C@]12CCC(C)=C[C@H]1O[C@@H]1[C@H](O)[C@@H](OC(C)=O)[C@@]2(C)[C@]12CO2 as the molecule, how does the Potency read?
Answer: inconclusive: 0.058 µM [activator, full curve, poor fit]

Question: For O=C1NC(=O)C2(Cc3ccccc3N3CCOCC32)C(=O)N1c1ccccc1 (stereo not given), which Potency is on record?
Answer: inconclusive: 29.1 µM [activator, single point]

Question: Which “re-replication activation” value does the source give for c1ccc(-c2nc(N3CCOCC3)s[n+]2-c2ccccc2)cc1 here?
Answer: inactive: -11.3%

Question: For COc1ccc(-n2c(-c3ccccc3Br)nc3ccccc3c2=O)cc1, which Potency is on record?
Answer: inconclusive: 29.1 µM [activator, single point]

Question: With CC[C@H](C)/C=C(C)/C=C/C1=CC2=C(Cl)C(=O)[C@](C)(OC(C)=O)C(=O)C2=CO1 as the molecule, how does the Potency read?
Answer: inconclusive: 25.9 µM [activator, single point]

Question: Which Potency does the source give for CCOC(=O)C1(c2ccccc2)CCN(CC(=O)Nc2cccc3ccccc23)CC1 here?
Answer: active: 20.6 µM

Question: With Nc1cc(Cl)c2nonc2c1[N+](=O)[O-] as the molecule, how does the Potency read?
Answer: inconclusive: 0.231 µM [activator, full curve]

Question: Which Potency does the source give for CC(O)C1C=CC=CC(=O)OC2CC3OC4C5OC5(C)C(O)CC4(COC(=O)C(O)C(C)CCO1)C2(C)C31CO1 (stereo not given) here?
Answer: active: 1.84 µM

Question: Which Potency does the source give for COc1ccc2cc1Oc1ccc(cc1)C[C@H]1c3cc(c(OC)cc3CCN1C)Oc1c(O)c(OC)cc3c1[C@H](C2)N(C)CC3 here?
Answer: inconclusive: 0.291 µM [activator, partial curve, poor fit]

Question: With O=c1[nH]c(=S)[nH]c(O)c1N=Nc1ccc(S(=O)(=O)N2CCc3ccccc32)cc1 as the molecule, how does the Potency read?
Answer: inconclusive: 2.59 µM [activator, partial curve, poor fit]

Question: With CN1CCN(c2ccccc2NC(=O)c2ccc(-c3ccc(Cl)c(Cl)c3)o2)CC1 as the molecule, how does the Potency read?
Answer: inconclusive: 29.1 µM [activator, single point]

Question: With CC(=O)[C@H]1[C@H](C#N)C[C@H]2[C@@H]3CC=C4C[C@@H](O)CC[C@]4(C)[C@H]3CC[C@@]21C as the molecule, how does the Potency read?
Answer: inconclusive: 25.9 µM [activator, single point]

Question: For COc1ccc(NC(c2ccccc2F)P(=O)(Oc2ccccc2)Oc2ccccc2)cc1 (stereo not given), which “re-replication activation” value is on record?
Answer: inactive: 8.26%

Question: For COc1cc(C=C2C(=O)NC(=O)NC2=O)ccc1OS(=O)(=O)c1ccccc1[N+](=O)[O-], which Potency is on record?
Answer: inconclusive: 29.1 µM [activator, single point]

Question: Which Potency does the source give for COc1ccc(S(=O)(=O)N2CCOCC2)cc1NC(=O)COC(=O)Cc1ccccc1 here?
Answer: inconclusive: 20.6 µM [activator, single point]

Question: Which Potency does the source give for CCC(C)N1CCN(C(=O)COc2ccc3ccccc3c2)CC1 (stereo not given) here?
Answer: inconclusive: 25.9 µM [activator, single point]

Question: With O=C(c1ccco1)c1cn(Cc2ccc(Cl)cc2)c2ccccc12 as the molecule, how does the Potency read?
Answer: inconclusive: 16.4 µM [activator, single point]

Question: With CC[C@]1(O)CC[C@H]2[C@@H]3CCC4=CCCC[C@@H]4[C@H]3CC[C@@]21C as the molecule, how does the Potency read?
Answer: active: 23.7 µM

Question: Which “re-replication activation” value does the source give for Cc1nc2cc(C(=O)N3CCC4(CC3)OCCO4)ccc2n1-c1ccc(Br)cc1 here?
Answer: inactive: 0.972%

Question: Which “re-replication activation” value does the source give for COc1cccc(OP(=O)(Nc2ccccc2)Oc2cccc(OC)c2)c1 here?
Answer: inactive: 2.64%

Question: Which Potency does the source give for CCN1CCC(O)(c2ccccc2)C(C(=O)c2ccccc2)C1 (stereo not given) here?
Answer: inconclusive: 29.1 µM [activator, single point]

Question: With O=C(O)c1ccccc1NC(=O)N1C[C@H]2C[C@@H](C1)c1cccc(=O)n1C2 as the molecule, how does the Potency read?
Answer: inconclusive: 0.731 µM [activator, full curve, poor fit]

Question: With C[C@]1(O)CCC2C3CC[C@H]4C[C@@H](OC(=O)CNC(=O)CN)CC[C@]4(C)C3CC[C@@]21C (stereo not given in full) as the molecule, how does the Potency read?
Answer: inconclusive: 20.6 µM [activator, single point]

Question: With Cc1cccc(NC(=O)CSc2nnc([C@@H](N)Cc3c[nH]c4ccccc34)o2)c1C as the molecule, how does the Potency read?
Answer: inconclusive: 4.11 µM [activator, full curve, poor fit]

Question: For O=C1C=C(NS(=O)(=O)c2ccccc2)C(=O)c2ccccc21, which Potency is on record?
Answer: inconclusive: 29.1 µM [activator, single point]

Question: With S=C=Nc1cccc(C2(N3CCCCC3)CCCCC2)c1 as the molecule, how does the Potency read?
Answer: inconclusive: 28.2 µM [activator, single point]

Question: Which Potency does the source give for COc1cccc(O)c1CN1CCCC(C(=O)c2sccc2C)C1 (stereo not given) here?
Answer: inconclusive: 0.411 µM [activator, partial curve, poor fit]

Question: Which “re-replication activation” value does the source give for CCOc1cc(C)cc2oc(=O)c3c(c12)CCCC3 here?
Answer: inactive: -0.0799%

Question: Which Potency does the source give for c1ccc2c(c1)CSc1ccccc1C2C1=NCCN1 (stereo not given) here?
Answer: inconclusive: 22.4 µM [activator, single point]
